Source: patent US20030017497A1, “Peptide mimotopes of carbohydrate antigens” (priority 1998, published 2003)
Some of these results come from one statement about several compounds together.

Tested on: SKBR3 cells
Experiment: Immunoprecipitation of tumor cell lysates with anti-peptide sera
Set-up: species or system human

| Sequence | strong reactive immunoprecipitation bands |
| --- | --- |
| GGIYWRYDIYWRYDIYWRYD (Novel Sequence) [Peptide P2, elsewhere called YYRYD motif] | 47 to 89 KD |
| GGIYYPYDIYYPYDIYYPYD (Novel Sequence) [Peptide P1] | 47 to 89 KD |
